## Percent effect of library compounds

Sequences of proteins named here, by UniProt entry; tags and fusion partners are left off. Residues count along the entry.
UniProt P9WFT3, whole entry: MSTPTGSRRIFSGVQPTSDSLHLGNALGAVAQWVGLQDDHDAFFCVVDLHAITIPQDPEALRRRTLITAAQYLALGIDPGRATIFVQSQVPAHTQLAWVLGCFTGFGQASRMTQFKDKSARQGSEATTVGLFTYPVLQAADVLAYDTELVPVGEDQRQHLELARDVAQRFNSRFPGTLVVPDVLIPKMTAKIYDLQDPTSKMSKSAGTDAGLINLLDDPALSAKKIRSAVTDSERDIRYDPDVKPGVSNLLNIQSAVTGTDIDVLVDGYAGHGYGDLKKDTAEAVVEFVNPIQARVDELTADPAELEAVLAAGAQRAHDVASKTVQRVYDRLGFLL
UniProt P9WPC5, whole entry: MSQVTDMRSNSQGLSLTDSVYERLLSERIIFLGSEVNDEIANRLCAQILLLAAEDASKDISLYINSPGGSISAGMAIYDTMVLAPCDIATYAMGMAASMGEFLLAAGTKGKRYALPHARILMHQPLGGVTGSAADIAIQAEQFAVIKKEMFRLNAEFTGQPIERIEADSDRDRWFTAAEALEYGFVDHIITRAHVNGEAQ
UniProt P9WPC3, whole entry partner: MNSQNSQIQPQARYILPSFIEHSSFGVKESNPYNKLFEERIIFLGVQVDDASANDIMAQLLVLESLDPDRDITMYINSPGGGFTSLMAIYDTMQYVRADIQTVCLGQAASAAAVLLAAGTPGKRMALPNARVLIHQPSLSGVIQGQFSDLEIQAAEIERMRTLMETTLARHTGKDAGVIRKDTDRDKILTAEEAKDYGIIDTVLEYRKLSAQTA
UniProt Q8IDJ8, 1-583: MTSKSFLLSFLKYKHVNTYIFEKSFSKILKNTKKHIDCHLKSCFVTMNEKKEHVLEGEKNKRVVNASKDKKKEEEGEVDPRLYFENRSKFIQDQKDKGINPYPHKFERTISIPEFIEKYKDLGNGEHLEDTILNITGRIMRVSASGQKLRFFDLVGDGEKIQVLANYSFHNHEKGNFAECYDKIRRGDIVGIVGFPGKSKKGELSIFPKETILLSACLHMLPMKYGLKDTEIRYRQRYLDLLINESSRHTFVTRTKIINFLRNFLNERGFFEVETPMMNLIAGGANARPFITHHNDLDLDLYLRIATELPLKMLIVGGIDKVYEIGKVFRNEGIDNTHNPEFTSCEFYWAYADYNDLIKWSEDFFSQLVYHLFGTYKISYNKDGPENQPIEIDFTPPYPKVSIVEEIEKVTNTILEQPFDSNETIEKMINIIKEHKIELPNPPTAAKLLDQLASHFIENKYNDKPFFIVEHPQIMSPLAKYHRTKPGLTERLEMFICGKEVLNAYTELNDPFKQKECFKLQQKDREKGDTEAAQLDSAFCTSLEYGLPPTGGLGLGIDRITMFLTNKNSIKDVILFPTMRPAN
UniProt P9WNZ1, whole entry: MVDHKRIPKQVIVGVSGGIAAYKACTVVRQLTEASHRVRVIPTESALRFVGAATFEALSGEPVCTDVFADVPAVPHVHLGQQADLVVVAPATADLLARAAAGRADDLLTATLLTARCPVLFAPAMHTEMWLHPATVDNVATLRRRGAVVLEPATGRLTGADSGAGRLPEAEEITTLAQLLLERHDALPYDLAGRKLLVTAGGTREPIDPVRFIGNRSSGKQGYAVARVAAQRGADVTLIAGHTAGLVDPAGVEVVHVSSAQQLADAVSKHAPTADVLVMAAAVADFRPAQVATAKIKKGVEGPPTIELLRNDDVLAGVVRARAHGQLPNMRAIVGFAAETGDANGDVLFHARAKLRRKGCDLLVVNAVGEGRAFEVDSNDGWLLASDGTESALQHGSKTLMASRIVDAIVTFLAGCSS

MtTrpRS: 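Enzyme assay of tryptophanyl-tRNA synthetase; the read-out is not stated. Target: Tryptophan-tRNA ligase, Mycobacterium tuberculosis (UniProt P9WFT3). Concentration: 10 µM. Direction is not recorded; retested compounds ran higher, which suggests that high means inhibition. About 65,000 compounds were tested under these conditions; 0.098% (about 64) showed 50% or more at least once.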
ClpP1P2: 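Protease assay of ClpP1P2, read by the AMC dye that it sets free. Target: ClpP1P2, Mycobacterium tuberculosis (UniProt P9WPC5 and UniProt P9WPC3). Concentration: 50 µM. Direction is inferred from only a few compounds that gave an IC50; most scored high, so higher reads as stronger inhibition. Most other retested compounds had strongly negative values. About 69,000 compounds were tested under these conditions; 0.015% (about 10) showed 50% or more at least once.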
Leishmania in macrophages: 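Cell assay of Leishmania donovani living inside macrophages; the read-out is not stated. Compounds at 30 µM. Direction is inferred from retests: higher values go with stronger inhibition. About 69,000 compounds were tested under these conditions; 1.5% (about 1,000) showed 50% or more at least once.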
PfKRS1: 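Lysine-tRNA ligase, Plasmodium falciparum 3D7 (UniProt Q8IDJ8). Enzyme assay of the cytosolic lysyl-tRNA synthetase in 384-well plates, read by luminescence. Compounds at 30 µM. Higher reads as stronger inhibition, judged from the few compounds that gave an IC50. Size under these conditions: about 69,000 compounds, about 49 of them at 50% or above in at least one test.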
CoaBC: 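Enzyme assay of CoaBC with a phosphate dye (Biomol Green) read at 650 nm. Target: Coenzyme A biosynthesis protein CoaBC, Mycobacterium tuberculosis (UniProt P9WNZ1). Concentration: 30 µM. Higher reads as stronger inhibition, judged from the few compounds that gave an IC50. Most strong results did not repeat in a second test. Of about 67,000 compounds tested this way, about 40 (0.06%) reached 50% or more in at least one test.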

Each number is a percent effect as filed.
How 0% and 100% were set is not recorded. Most values in the screen are low, and negative values occur.
This is an unselected part of the compounds tested.
Two or more numbers in one place are separate tests of the same structure; such repeats can differ widely.
A dash means the value is not listed here; it may have been measured.

Result for COC(=O)c1ccc(Cl)c(NS(=O)(=O)c2cn(C)cn2)c1 was MtTrpRS: 8.505%; ClpP1P2: -1.394%; Leishmania in macrophages: -18.82%; PfKRS1: 2.017%; CoaBC: 9.127%. CCc1cccc2c(CC(=O)N(C)CCN(C)C)c(C)[nH]c12 read MtTrpRS: -1.893%; ClpP1P2: -11.02%; PfKRS1: 1.013%; CoaBC: -5.327%. For CC(C)Cc1nc(CN2CCC3(CCCO3)CCC2=O)no1 (stereo unspecified) the result was MtTrpRS: -4.77%; ClpP1P2: 4.013%; Leishmania in macrophages: 24.8%; PfKRS1: 5.027%; CoaBC: 4.113%. Result for COCCNC(=O)NC1(c2nc(C)no2)CCCCC1 was MtTrpRS: -3.571%; ClpP1P2: 2.578%; Leishmania in macrophages: 12.93% & -11.73%; PfKRS1: 0.7583%; CoaBC: 9.514%. Cc1ccc(-c2cnc3n2CCN(C)C32CCN(CC3CC3)CC2)cc1 read MtTrpRS: 2.045%; ClpP1P2: 0.5676%; PfKRS1: -0.04196%; CoaBC: -32.08%. With CNC(=O)N1CCc2nc(C(=O)Nc3cccnc3)sc2CC1 the screen gave MtTrpRS: -0.9017%; ClpP1P2: -6.156%; Leishmania in macrophages: 8.222%; PfKRS1: 3.993%; CoaBC: 2.648%. CC1CCCCN1C(=O)Cn1cnc(C#N)n1 (stereo unspecified) gave MtTrpRS: -0.2463%; ClpP1P2: 3.627%; Leishmania in macrophages: -5.709%; PfKRS1: 11.06%; CoaBC: -2.826%.

Result for [H][C@@]12CCN(CC3CC3)C[C@@]1([H])[C@H](C(=O)N1CCCCO1)CCO2 was Leishmania in macrophages: -5.279%. For O=S1(=O)CCN(Cc2cccnc2)[C@H]2CCN(c3ncccn3)CC[C@H]21 the result was MtTrpRS: 14.82%; ClpP1P2: 1.337%; PfKRS1: 0.8791%; CoaBC: -8.075%. Result for CC(C)C[C@H](NC(=O)Cc1csc(-c2cccc(Cl)c2)n1)C(=O)O was MtTrpRS: 6.137%; ClpP1P2: -4.343%; Leishmania in macrophages: -1.109%; PfKRS1: 0.5135%; CoaBC: -1.053%. CC(C)Cn1cncc1CNC(=O)c1cccc(-n2cnnc2)c1 read MtTrpRS: -0.9279%; ClpP1P2: -5.647%; Leishmania in macrophages: -15.57%; PfKRS1: 1.53%; CoaBC: 1.282%. Result for CC1(CO)COC(Cc2ccc(Cl)cc2)=N1 (stereo unspecified) was MtTrpRS: -4.45%; ClpP1P2: 6.059%; Leishmania in macrophages: -8.842%; PfKRS1: -1.186%; CoaBC: 0.7812%. For COc1cnc(CSc2nnc(C)s2)cc1OCC(=O)NC(C)(C)C the result was MtTrpRS: -0.6135%; ClpP1P2: -15.04%; Leishmania in macrophages: 11.07% & 4.601%; PfKRS1: 0.01217%; CoaBC: 2.025%. Result for COc1cccc(-n2cc(CN(C)C(=O)c3cnc(O)cn3)cn2)c1 was MtTrpRS: -5.676%; ClpP1P2: 7.279%; Leishmania in macrophages: 18.14%; PfKRS1: 5.748%.

Result for O=C(O)C(F)(F)F.O=C(O)C(F)(F)F.c1cncc(-c2ccc3c(c2)CCC32CCN(Cc3ccco3)CC2)c1 was Leishmania in macrophages: 59.2%.

The last 2 entries again:

SMILES	MtTrpRS	ClpP1P2	Leishmania in macrophages	PfKRS1	CoaBC
COc1cccc(-n2cc(CN(C)C(=O)c3cnc(O)cn3)cn2)c1	-5.676	7.279	18.14	5.748	-
O=C(O)C(F)(F)F.O=C(O)C(F)(F)F.c1cncc(-c2ccc3c(c2)CCC32CCN(Cc3ccco3)CC2)c1	-	-	59.2	-	-

Source: ChEMBL document CHEMBL3988442, “University of Dundee, Small-Polar-MMV Screening Library” (2021).